Paper PMC10799427
These are yes or no findings as the source states them, for the method shown. In cells and extracts the contact can be indirect. Some entries that bind do so weakly or less than the wild type.

Chains of the proteins cited; added tags and fusions are not shown. Lines headed by an entry give the natural chain unless they say otherwise; changes in a name come on top.
UniProt Q9NPD8: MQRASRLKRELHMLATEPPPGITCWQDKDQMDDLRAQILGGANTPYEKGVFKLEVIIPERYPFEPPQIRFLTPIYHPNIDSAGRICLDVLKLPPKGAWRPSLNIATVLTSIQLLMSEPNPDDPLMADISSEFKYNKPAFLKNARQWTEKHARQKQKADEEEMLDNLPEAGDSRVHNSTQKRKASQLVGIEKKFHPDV

Columns and labels:
[1] = target: G3BP1 (human (endogenous in SKOV3/DDP and A2780/DDP)) (UniProt Q13283); assay: co-IP; co-immunoprecipitation in SKOV3/DDP and A2780/DDP cells; which protein was precipitated is not told; no methods given
[2] = target: Ub-conjugating enzyme E2T (UBE2T) (human (endogenous in SKOV3/DDP and A2780/DDP)) (UniProt Q9NPD8); assay: as above

binding [1]: binds
binding [2]: binds
Substance: p53 protein (from UniProt P04637 1-393)
